Measurements from patent US5266594A, “Inhibitors of nitric oxide synthase and use thereof to prevent glutamate neurotoxicity” (priority 1992, dated 1993).
Entries after “also recorded” stand apart in the source; their conditions may differ. At least one structure is not confirmed: it was looked up by name or label, or the drawing left a doubt.

Key:
[1] = tested on: cortical cell cultures; format: cell-based, rat; details: 300 μM NMDA; arginase-treated or L-Arg-free medium, 24 hour
Protocol: Primary dissociated cell cultures were prepared from fetal rats (13-to 14-day gestation for cortex and caudate-putamen cultures and 19- to 20-day gestation for hippocampal cultures). The tissue of interest was dissected, incubated for 15 minutes in 0.027% trypsin in Brooks-Logan solution (5% phosphate-buffered saline/0.04M sucrose/10 mM Hepes/0.03M glucose, pH 7.4), and then transferred to modified Eagle's medium (MEM) 10% horse serum/10% fetal bovine serum/2 mM glutamine for trituration. Dissociated cells were plated at a density of 3-4×10^5 cells per well in polyornithine-coated 15-mm multiwell plates. […]
Cells were exposed to excitatory amino acids according to the method of Koh and Choi (J. Neurosci. (1988) 8:2153-2163). […] Two to four photographs (10-20×) were made of each well, and viable versus nonviable cells were counted. The cytotoxicity data represent 6-24 separate wells assayed per data point, with ≈500-1500 cells counted per well. Neuronal cell injury was also assessed by measuring the release of lactate dehydrogenase by damaged or destroyed cells into the extracellular fluid following drug exposure. […]
To examine the role of NO in other forms of glutamate neurotoxicity, the effects of NO2 Arg cytotoxicity induced by quisqualate, kainate, and NMDA were compared. […] Cell death was determined by 0.4% trypan blue exclusion by viable cells.

[2] = tested on: cGMP formation; assay: cGMP formation in cortical cell cultures (RIA); format: cell-based, rat; details: 300 μM NMDA (plus 10 μM glycine), 1 minute; 100 μM NO2 Arg, 1 mM L-Arg, 100 units of SOD, 500 μM Hb

CN[C@H](CC(=O)O)C(=O)O [NMDA, N-methyl-D-aspartate]
NMDA toxicity in L-Arg-depleted medium [1]: abolishes NMDA toxicity; also recorded: no longer causes cell death
effect on NMDA stimulation of cGMP formation [2]: can stimulate the formation of NO in cortical cultures
